Here are results for 1 molecule from paper PMC8968644.

Amino acid sequences for entries named in this document (tags omitted). A change or cut given only in a name is not applied to a line headed by its entry.
UniProt Q8N302: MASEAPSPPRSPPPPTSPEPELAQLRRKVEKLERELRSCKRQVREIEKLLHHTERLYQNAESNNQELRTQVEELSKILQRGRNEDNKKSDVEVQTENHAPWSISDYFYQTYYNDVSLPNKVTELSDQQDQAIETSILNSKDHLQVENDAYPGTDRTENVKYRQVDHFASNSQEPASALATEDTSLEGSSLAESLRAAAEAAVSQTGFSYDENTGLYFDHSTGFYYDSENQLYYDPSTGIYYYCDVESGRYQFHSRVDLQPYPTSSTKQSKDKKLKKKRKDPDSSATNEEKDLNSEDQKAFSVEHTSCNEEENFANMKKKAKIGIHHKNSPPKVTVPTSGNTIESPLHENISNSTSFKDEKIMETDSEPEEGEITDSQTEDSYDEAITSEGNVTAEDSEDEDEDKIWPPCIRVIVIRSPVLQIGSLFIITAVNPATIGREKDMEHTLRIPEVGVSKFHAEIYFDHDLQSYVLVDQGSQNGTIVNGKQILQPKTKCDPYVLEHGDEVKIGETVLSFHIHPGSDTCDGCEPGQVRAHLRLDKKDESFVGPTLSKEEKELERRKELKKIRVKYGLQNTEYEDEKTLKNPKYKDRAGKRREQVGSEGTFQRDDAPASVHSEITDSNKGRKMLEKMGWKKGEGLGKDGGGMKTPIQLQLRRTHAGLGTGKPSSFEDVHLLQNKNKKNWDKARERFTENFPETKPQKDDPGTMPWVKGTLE

The target of test [1] is AGGF1-RAD (AGGF1 with the RDD motif mutated into RAD) (UniProt Q8N302). Kind of test: co-IP; HeLa cells cotransfected with the two expression plasmids for 48 h, lysed; lysate preabsorbed with Protein A/G PLUS-agarose; 1.5 μg immunoprecipitation antibody (anti-AGGF1; reciprocal with anti-integrin for the wild type) or anti-mouse IgG overnight at 4 °C; Western blot for the partner.

Test [2] has as its target AGGF1-RDA (AGGF1 with the RDD motif mutated into RDA) (UniProt Q8N302). Described as above.

No constants are given. Whether binding was seen depends on the method and setting. Binding seen in cells or lysates may run through a third protein. A result given as binding can be weak or reduced; the word gives no strength.

B1: Integrin α7 (ITGA7) (receptor, UniProt Q13683 34-1181)
chain: FNLDVMGALRKEGEPGSLFGFSVALHRQLQPRPQSWLLVGAPQALALPGQQANRTGGLFACPLSLEETDCYRVDIDQGADMQKESKENQWLGVSVRSQGPGGKIVTCAHRYEARQRVDQILETRDMIGRCFVLSQDLAIRDELDGGEWKFCEGRPQGHEQFGFCQQGTAAAFSPDSHYLLFGAPGTYNWKGTARVELCAQGSADLAHLDDGPYEAGGEKEQDPRLIPVPANSYFGLLFVTNIDSSDPDQLVYKTLDPADRLPGPAGDLALNSYLGFSIDSGKGLVRAEELSFVAGAPRANHKGAVVILRKDSASRLVPEVMLSGERLTSGFGYSLAVADLNSDGWPDLIVGAPYFFERQEELGGAVYVYLNQGGHWAGISPLRLCGSPDSMFGISLAVLGDLNQDGFPDIAVGAPFDGDGKVFIYHGSSLGVVAKPSQVLEGEAVGIKSFGYSLSGSLDMDGNQYPDLLVGSLADTAVLFRARPILHVSHEVSIAPRSIDLEQPNCAGGHSVCVDLRVCFSYIAVPSSYSPTVALDYVLDADTDRRLRGQVPRVTFLSRNLEEPKHQASGTVWLKHQHDRVCGDAMFQLQENVKDKLRAIVVTLSYSLQTPRLRRQAPGQGLPPVAPILNAHQPSTQRAEIHFLKQGCGEDKICQSNLQLVRARFCTRVSDTEFQPLPMDVDGTTALFALSGQPVIGLELMVTNLPSDPAQPQADGDDAHEAQLLVMLPDSLHYSGVRALDPAEKPLCLSNENASHVECELGNPMKRGAQVTFYLILSTSGISIETTELEVELLLATISEQELHPVSARARVFIELPLSIAGMAIPQQLFFSGVVRGERAMQSERDVGSKVKYEVTVSNQGQSLRTLGSAFLNIMWPHEIANGKWLLYPMQVELEGGQGPGQKGLCSPRPNILHLDVDSRDRRRRELEPPEQQEPGERQEPSMSWWPVSSAEKKKNITLDCARGTANCVVFSCPLYSFDRAAVLHVWGRLWNSTFLEEYSAVKSLEVIVRANITVKSSIKNLMLRDASTVIPVMVYLDPMAVVAEGVPWWVILLAVLAGLLVLALLVLLLWKMGFFKRAKHPEATVPQYHAVKIPREDRQQFKEEKTGTILRNNWGSPRREGPDAHPILAADGHPELGPDGHPGPGTA
Regarding B1, the binding result in test [1] and in test [2] was “binds” throughout.
